Source: doi:10.1101/854497 (bioRxiv, 2020)
These are yes or no findings as the source states them, for the method shown. For some of these results: Binding seen in cells or lysates may run through a third protein. Some entries that bind do so weakly or less than the wild type. For some of these results: Where a sequence is shown, tags or fusion partners need not be part of it.

T1: Pex14p-TPA (yeast) (UniProt P53112)
T1 sequence: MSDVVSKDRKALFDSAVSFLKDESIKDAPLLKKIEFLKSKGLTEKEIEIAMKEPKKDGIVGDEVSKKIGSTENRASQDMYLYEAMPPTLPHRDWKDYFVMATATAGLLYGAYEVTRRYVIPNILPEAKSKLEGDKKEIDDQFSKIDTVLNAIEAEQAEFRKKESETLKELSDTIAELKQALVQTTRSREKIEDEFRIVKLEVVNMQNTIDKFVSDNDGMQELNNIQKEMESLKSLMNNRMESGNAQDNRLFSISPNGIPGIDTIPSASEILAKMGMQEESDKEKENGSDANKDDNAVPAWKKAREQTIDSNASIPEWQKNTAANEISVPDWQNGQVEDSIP

T2: Pex17p_(1-167)TPA (yeast) (UniProt P40155)
T2 sequence: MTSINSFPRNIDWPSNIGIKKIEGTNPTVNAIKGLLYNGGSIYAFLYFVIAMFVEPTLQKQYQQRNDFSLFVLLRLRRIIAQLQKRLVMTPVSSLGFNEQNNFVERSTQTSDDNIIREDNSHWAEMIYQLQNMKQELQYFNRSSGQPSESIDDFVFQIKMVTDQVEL

T3: Pex17pTPA (yeast) (UniProt P40155)
T3 sequence: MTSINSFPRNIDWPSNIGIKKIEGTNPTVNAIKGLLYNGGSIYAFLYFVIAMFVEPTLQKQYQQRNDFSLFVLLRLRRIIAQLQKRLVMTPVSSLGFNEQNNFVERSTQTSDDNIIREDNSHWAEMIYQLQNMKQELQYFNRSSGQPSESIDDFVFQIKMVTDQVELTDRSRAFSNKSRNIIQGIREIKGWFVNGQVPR

T4: Pex17p_(167-199) Gal4p fusion (yeast) (UniProt P40155)
T4 sequence: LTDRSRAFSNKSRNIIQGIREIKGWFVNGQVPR


Assays:
Pex14p_(1-95) (yeast) [1] = target: Pex14p_(1-95) (yeast) (UniProt P53112); test: native MS
Pex14p_(1-95) (yeast) [2] = target: Pex14p_(1-95) (yeast) (UniProt P53112); test: cross-linking
Pex14p-TPA (yeast) = target: T1, Pex14p-TPA (yeast); test: co-IP
[3] = target: T2, Pex17p_(1-167)TPA (yeast); test: co-IP
Pex17pTPA (yeast) = target: T3, Pex17pTPA (yeast); test: co-IP
[4] = target: T4, Pex17p_(167-199) Gal4p fusion (yeast); test: two-hybrid
Pex14p_(213-341) (yeast) [5] = target: Pex14p_(213-341) (yeast) (UniProt P53112); test: native MS
Pex14p_(213-341) (yeast) [6] = target: Pex14p_(213-341) (yeast) (UniProt P53112); test: cross-linking

binding [3]	binding (Pex17pTPA (yeast))	Binder	further results
		Pex14p_(1-95) (domain or fragment, UniProt P53112 1-95) MSDVVSKDRKALFDSAVSFLKDESIKDAPLLKKIEFLKSKGLTEKEIEIAMKEPKKDGIVGDEVSKKIGSTENRASQDMYLYEAMPPTLPHRDWK	binding (Pex14p_(1-95) (yeast) [1]): no binding; binding (Pex14p_(1-95) (yeast) [2]): no binding
		His6-Pex17p (natural protein, yeast, UniProt P40155 1-199, looked up) MTSINSFPRNIDWPSNIGIKKIEGTNPTVNAIKGLLYNGGSIYAFLYFVIAMFVEPTLQKQYQQRNDFSLFVLLRLRRIIAQLQKRLVMTPVSSLGFNEQNNFVERSTQTSDDNIIREDNSHWAEMIYQLQNMKQELQYFNRSSGQPSESIDDFVFQIKMVTDQVELTDRSRAFSNKSRNIIQGIREIKGWFVNGQVPR	binding (Pex14p-TPA (yeast)): binds
binds	binds	PTS1-receptor Pex5p (receptor, UniProt P35056 1-612) MDVGSCSVGNNPLAQLHKHTQQNKSLQFNQKNNGRLNESPLQGTNKPGISEAFISNVNAISQENMANMQRFINGEPLIDDKRRMEIGPSSGRLPPFSNVHSLQTSANPTQIKGVNDISHWSQEFQGSNSIQNRNADTGNSEKAWQRGSTTASSRFQYPNTMMNNYAYASMNSLSGSRLQSPAFMNQQQSGRSKEGVNEQEQQPWTDQFEKLEKEVSENLDINDEIEKEENVSEVEQNKPETVEKEEGVYGDQYQSDFQEVWDSIHKDAEEVLPSELVNDDLNLGEDYLKYLGGRVNGNIEYAFQSNNEYFNNPNAYKIGCLLMENGAKLSEAALAFEAAVKEKPDHVDAWLRLGLVQTQNEKELNGISALEECLKLDPKNLEAMKTLAISYINEGYDMSAFTMLDKWAETKYPEIWSRIKQQDDKFQKEKGFTHIDMNAHITKQFLQLANNLSTIDPEIQLCLGLLFYTKDDFDKTIDCFESALRVNPNDELMWNRLGASLANSNRSEEAIQAYHRALQLKPSFVRARYNLAVSSMNIGCFKEAAGYLLSVLSMHEVNTNNKKGDVGSLLNTYNDTVIETLKRVFIAMNRDDLLQEVKPGMDLKRFKGEFSF	
		full-length Pex14p Gal4p fusion (protein, UniProt P53112 1-341) MSDVVSKDRKALFDSAVSFLKDESIKDAPLLKKIEFLKSKGLTEKEIEIAMKEPKKDGIVGDEVSKKIGSTENRASQDMYLYEAMPPTLPHRDWKDYFVMATATAGLLYGAYEVTRRYVIPNILPEAKSKLEGDKKEIDDQFSKIDTVLNAIEAEQAEFRKKESETLKELSDTIAELKQALVQTTRSREKIEDEFRIVKLEVVNMQNTIDKFVSDNDGMQELNNIQKEMESLKSLMNNRMESGNAQDNRLFSISPNGIPGIDTIPSASEILAKMGMQEESDKEKENGSDANKDDNAVPAWKKAREQTIDSNASIPEWQKNTAANEISVPDWQNGQVEDSIP	binding [4]: binds
binds	binds	Pex14p (endogenous) (protein, UniProt P53112 1-341) MSDVVSKDRKALFDSAVSFLKDESIKDAPLLKKIEFLKSKGLTEKEIEIAMKEPKKDGIVGDEVSKKIGSTENRASQDMYLYEAMPPTLPHRDWKDYFVMATATAGLLYGAYEVTRRYVIPNILPEAKSKLEGDKKEIDDQFSKIDTVLNAIEAEQAEFRKKESETLKELSDTIAELKQALVQTTRSREKIEDEFRIVKLEVVNMQNTIDKFVSDNDGMQELNNIQKEMESLKSLMNNRMESGNAQDNRLFSISPNGIPGIDTIPSASEILAKMGMQEESDKEKENGSDANKDDNAVPAWKKAREQTIDSNASIPEWQKNTAANEISVPDWQNGQVEDSIP	
binds	binds	Pex13p (protein, UniProt P80667 1-386) MSSTAVPRPKPWETSASLEEPQRNAQSLSAMMTSNQQDSRPTEESNNSNSASESAPEVLPRPAALNSSGTYGESNTIPGIYGNSNYGIPYDNNPYSMNSIYGNSIGRYGYGGSYYGNNYGSFYGGGYGAGAGYGMNNGSGLGESTKATFQLIESLIGAVTGFAQMLESTYMATHNSFFTMISVAEQFGNLKEMLGSFFGIFAIMKFLKKILYRATKGRLGIPPKNFAESEGSKNKLIEDFQKFNDSGTINSNEKATRRKISWKPLLFFLMAVFGFPYLLNKFITKLQTSGTIRASQGNGSEPIDPSKLEFARALYDFVPENPEMEVALKKGDLMAILSKKDPLGRDSDWWKVRTKNGNIGYIPYNYIEIIKRRKKIEHVDDETRTH	
		Pex14p_(213-341) (domain or fragment, UniProt P53112 213-341) VSDNDGMQELNNIQKEMESLKSLMNNRMESGNAQDNRLFSISPNGIPGIDTIPSASEILAKMGMQEESDKEKENGSDANKDDNAVPAWKKAREQTIDSNASIPEWQKNTAANEISVPDWQNGQVEDSIP	binding (Pex14p_(213-341) (yeast) [5]): no binding; binding (Pex14p_(213-341) (yeast) [6]): no binding
binds	binds	Pex12p (protein, UniProt Q04370 1-399) MSFYSNLPSAGQSSRGSSTSGRNGVGLEPLYPTIFEIMSSQEIDSLLPASIRYLLANHLVANFPNRYTLRLNKYFFEWFQAIKGFVEWYHLKTYNSTFIDRFYGLQLFSSRDRNLALTQCLNPKGQSEWPQGLQLNQQQKSVIFLEKIILPYITAKLDEILEKISMNNIFSSDETENKWPKRAFLRIYPFIKKLLALSNLLVKLLFLTKRTGSVSLLQYLFKIEYTTVRPLSSELSGLKETKGMDNRLRKTNISSIFALMQGQLSIIPRFLTFMGSQFFPTFIFVLRVYQWWTTQDMTTKLQKRVNDLDEDIPRPPFSSHSDKTEDKEGVSEACPVCEKTVQNPCVLETGYVACYPCAISYLVNNEGHCPVTNKKLLGCTYNKHTNKWEVVTGIRKLLI	
binds	binds	Pex10p (protein, UniProt Q05568 1-337) MKNDNKLQKEALMRLSQLRFPFADAPSIVQAHQKDEQIQGLLIMKVTELCKLIKSQLFVNSYPKELSIFAKLLYLLFTTGRRGRTLGEEYVDLTYTNRKGTRLAGRLKMIVFAFAYPLCPYFITKLYKKIMKNNKESKIEDTESVAAFCKGLLDFILDVHMTLFYFKGAFYSISKRIFGMRYVFKHILSKNEANFREEGSQKYKVLGYILLAQNVMKWYPVLTSTLGSWIYGRKRTNDSITRSSVGLQERSEHESIEGIPKESQLTHINLSDKNQLPFIPEASRKCILCLMNMSDPSCAPCGHLFCWSCLMSWCKERPECPLCRQHCQPQEILVLRQ	
